From the supplement of paper PMC8728848
The list shows a part of the results.

How the values were obtained:
Test in all cases: glycan array binding signal (z-score within array); higher = stronger binding
Settings in all cases: glycan notation: IUPAC condensed, linker removed
[1] = target: Man(a1-2)Man(a1-3)[Man(a1-2)Man(a1-6)]Man(a1-6)[Man(a1-2)Man(a1-2)Man(a1-3)]Man
In short: (§1)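 Negative Z-scores can be read as non-binding. The Z-score is calculated within each array and then averaged across arrays of one protein sequence at different concentrations or buffers and across linkers. Arrays, 3228 in all, were curated from the Consortium for Functional Glycomics database and kept only where the protein sequence was available.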

[2] = target: Man(a1-2)Man(a1-3)[Man(a1-2)Man(a1-6)]Man(a1-6)[Man(a1-2)Man(a1-2)Man(a1-3)]Man(b1-4)GlcNAc(b1-4)GlcNAc
In short: as §1

[3] = target: Man(a1-2)Man(a1-3)[Man(a1-6)]Man(a1-6)[Man(a1-2)Man(a1-3)]Man(b1-4)GlcNAc(b1-4)GlcNAc
In short: as §1

[4] = target: Man(a1-2)Man(a1-6)[Man(a1-3)]Man(a1-6)[Man(a1-2)Man(a1-2)Man(a1-3)]Man
In short: as §1

[5] = target: Man(a1-2)Man(a1-6)[Man(a1-3)]Man(a1-6)[Man(a1-2)Man(a1-2)Man(a1-3)]Man(b1-4)GlcNAc(b1-4)GlcNAc
In short: as §1

Man(a1-3)[Man(a1-6)]Man = target: Man(a1-3)[Man(a1-6)]Man
In short: as §1

[6] = target: Man(a1-3)[Man(a1-6)]Man(a1-6)[Man(a1-2)Man(a1-3)]Man(b1-4)GlcNAc(b1-4)GlcNAc
In short: as §1

[7] = target: Man(a1-3)[Man(a1-6)]Man(a1-6)[Man(a1-3)]Man
In short: as §1

[8] = target: Man(a1-3)[Man(a1-6)]Man(a1-6)[Man(a1-3)]Man(b1-4)GlcNAc(b1-4)GlcNAc
In short: as §1

[9] = target: Man(a1-3)[Man(a1-6)]Man(b1-4)GlcNAc(b1-4)GlcNAc
In short: as §1

[10] = target: Man(a1-3)[Man(a1-6)]Man(b1-4)GlcNAc(b1-4)[Fuc(a1-6)]GlcNAc
In short: as §1

Man(a1-6)Man = target: Man(a1-6)Man
In short: as §1

Man(b1-4)GlcNAc = target: Man(b1-4)GlcNAc
In short: as §1

MurNAc(b1-4)GlcNAc = target: MurNAc(b1-4)GlcNAc
In short: as §1

Neu5Ac(a2-3)Gal = target: Neu5Ac(a2-3)Gal
In short: as §1

[11] = target: Neu5Ac(a2-3)Gal(b1-3)GalNAc
In short: as §1

[12] = target: Neu5Ac(a2-3)Gal(b1-3)GalNAc(b1-3)Gal(a1-4)Gal(b1-4)Glc
In short: as §1

[13] = target: Neu5Ac(a2-3)Gal(b1-3)GalNAc(b1-4)Gal(b1-4)Glc
In short: as §1

[14] = target: Neu5Ac(a2-3)Gal(b1-3)GalNAc(b1-4)[Neu5Ac(a2-3)]Gal(b1-4)Glc
In short: as §1

[15] = target: Neu5Ac(a2-3)Gal(b1-3)GalNAc(b1-4)[Neu5Ac(a2-8)Neu5Ac(a2-3)]Gal(b1-4)Glc
In short: as §1

[16] = target: Neu5Ac(a2-3)Gal(b1-3)GalNAc6S
In short: as §1

[17] = target: Neu5Ac(a2-3)Gal(b1-3)GlcNAc
In short: as §1

[18] = target: Neu5Ac(a2-3)Gal(b1-3)GlcNAc(b1-2)Man
In short: as §1

[19] = target: Neu5Ac(a2-3)Gal(b1-3)GlcNAc(b1-2)Man(a1-3)[GlcNAc(b1-4)][Neu5Ac(a2-3)Gal(b1-3)GlcNAc(b1-2)Man(a1-6)]Man(b1-4)GlcNAc(b1-4)GlcNAc
In short: as §1

[20] = target: Neu5Ac(a2-3)Gal(b1-3)GlcNAc(b1-2)Man(a1-3)[Neu5Ac(a2-3)Gal(b1-3)GlcNAc(b1-2)Man(a1-6)]Man(b1-4)GlcNAc(b1-4)GlcNAc
In short: as §1

[21] = target: Neu5Ac(a2-3)Gal(b1-3)GlcNAc(b1-2)[Neu5Ac(a2-3)Gal(b1-3)GlcNAc(b1-4)]Man(a1-6)[Neu5Ac(a2-3)Gal(b1-3)GlcNAc(b1-2)Man(a1-3)]Man(b1-4)GlcNAc(b1-4)GlcNAc
In short: as §1

[22] = target: Neu5Ac(a2-3)Gal(b1-3)GlcNAc(b1-3)Gal(b1-3)GlcNAc
In short: as §1

[23] = target: Neu5Ac(a2-3)Gal(b1-3)GlcNAc(b1-3)Gal(b1-4)GlcNAc
In short: as §1

[24] = target: Neu5Ac(a2-3)Gal(b1-3)GlcNAc(b1-3)GalNAc
In short: as §1

[25] = target: Neu5Ac(a2-3)Gal(b1-3)GlcNAc(b1-6)GalNAc
In short: as §1

[26] = target: Neu5Ac(a2-3)Gal(b1-3)GlcNAc6S
In short: as §1

[27] = target: Neu5Ac(a2-3)Gal(b1-3)[Fuc(a1-4)]GlcNAc
In short: as §1

[28] = target: Neu5Ac(a2-3)Gal(b1-3)[Fuc(a1-4)]GlcNAc(b1-3)Gal(b1-3)[Fuc(a1-4)]GlcNAc
In short: as §1

[29] = target: Neu5Ac(a2-3)Gal(b1-3)[Fuc(a1-4)]GlcNAc(b1-3)Gal(b1-4)[Fuc(a1-3)]GlcNAc
In short: as §1

[30] = target: Neu5Ac(a2-3)Gal(b1-3)[GlcNAc(b1-6)]GalNAc
In short: as §1

[31] = target: Neu5Ac(a2-3)Gal(b1-3)[Neu5Ac(a2-6)]GalNAc
In short: as §1

[32] = target: Neu5Ac(a2-3)Gal(b1-3)[Neu5Ac(a2-6)]GlcNAc(b1-3)[Fuc(a1-3)[Gal(b1-4)]GlcNAc(b1-6)]Gal(b1-4)Glc
In short: as §1

[33] = target: Neu5Ac(a2-3)Gal(b1-3)]Neu5Ac(a2-3)Gal(b1-4)]GlcNAc
In short: as §1

Neu5Ac(a2-3)Gal(b1-4)Glc = target: Neu5Ac(a2-3)Gal(b1-4)Glc
In short: as §1

[34] = target: Neu5Ac(a2-3)Gal(b1-4)GlcNAc
In short: as §1

[35] = target: Neu5Ac(a2-3)Gal(b1-4)GlcNAc(b1-2)Man
In short: as §1

[36] = target: Neu5Ac(a2-3)Gal(b1-4)GlcNAc(b1-2)Man(a1-3)[GlcNAc(b1-4)][Neu5Ac(a2-3)Gal(b1-4)GlcNAc(b1-2)Man(a1-6)]Man(b1-4)GlcNAc(b1-4)GlcNAc
In short: as §1

[37] = target: Neu5Ac(a2-3)Gal(b1-4)GlcNAc(b1-2)Man(a1-3)[Neu5Ac(a2-3)Gal(b1-4)GlcNAc(b1-2)Man(a1-6)]Man(b1-4)GlcNAc(b1-4)GlcNAc
In short: as §1

[38] = target: Neu5Ac(a2-3)Gal(b1-4)GlcNAc(b1-2)Man(a1-3)[Neu5Ac(a2-3)Gal(b1-4)GlcNAc(b1-2)Man(a1-6)]Man(b1-4)GlcNAc(b1-4)[Fuc(a1-6)]GlcNAc
In short: as §1

[39] = target: Neu5Ac(a2-3)Gal(b1-4)GlcNAc(b1-2)Man(a1-3)[Neu5Ac(a2-6)Gal(b1-4)GlcNAc(b1-2)Man(a1-6)]Man(b1-4)GlcNAc(b1-4)GlcNAc
In short: as §1

B1: CM2 (Cordyceps militaris) (protein)
chain: MEIAEQNVGKSCAIVNLIPPKEGSNIWTAKQVTIARNLPPNRGTGRHQIDWSFGPVKVTGYVDTTNWEIGVTVSIMGIDLGTVYGNLRDGVVLNVDLFLAKGQVRFYLKNGNEVWVHLSVEIRFDGKFEGDYKIITV
glycan array binding signal (z-score) [1]: 2.53
glycan array binding signal (z-score) [2]: -0.996
glycan array binding signal (z-score) [3]: -0.649
glycan array binding signal (z-score) [4]: -2.27
glycan array binding signal (z-score) [5]: -0.263
glycan array binding signal (z-score) (Man(a1-3)[Man(a1-6)]Man): 1.02
glycan array binding signal (z-score) [6]: 2.43
glycan array binding signal (z-score) [7]: -0.963
glycan array binding signal (z-score) [8]: -0.558
glycan array binding signal (z-score) [9]: -0.111
glycan array binding signal (z-score) [10]: 0.089
glycan array binding signal (z-score) (Man(a1-6)Man): 0.871
glycan array binding signal (z-score) (Man(b1-4)GlcNAc): 0.323
glycan array binding signal (z-score) (MurNAc(b1-4)GlcNAc): -1.43
glycan array binding signal (z-score) (Neu5Ac(a2-3)Gal): -0.813
glycan array binding signal (z-score) [11]: 0.608
glycan array binding signal (z-score) [12]: -0.506
glycan array binding signal (z-score) [13]: 1.57
glycan array binding signal (z-score) [14]: -1.19
glycan array binding signal (z-score) [15]: 0.315
glycan array binding signal (z-score) [16]: -0.202
glycan array binding signal (z-score) [17]: 0.181
glycan array binding signal (z-score) [18]: -1.23
glycan array binding signal (z-score) [19]: 1.74
glycan array binding signal (z-score) [20]: -0.199
glycan array binding signal (z-score) [21]: -0.029
glycan array binding signal (z-score) [22]: -2.02
glycan array binding signal (z-score) [23]: -0.256
glycan array binding signal (z-score) [24]: -0.351
glycan array binding signal (z-score) [25]: 0.51
glycan array binding signal (z-score) [26]: -0.532
glycan array binding signal (z-score) [27]: -0.052
glycan array binding signal (z-score) [28]: 0.659
glycan array binding signal (z-score) [29]: -0.978
glycan array binding signal (z-score) [30]: -1.74
glycan array binding signal (z-score) [31]: -1.17
glycan array binding signal (z-score) [32]: -0.461
glycan array binding signal (z-score) [33]: 3.98
glycan array binding signal (z-score) (Neu5Ac(a2-3)Gal(b1-4)Glc): 0.479
glycan array binding signal (z-score) [34]: 0.924
glycan array binding signal (z-score) [35]: 0.955
glycan array binding signal (z-score) [36]: -0.303
glycan array binding signal (z-score) [37]: -0.387
glycan array binding signal (z-score) [38]: 0.099
glycan array binding signal (z-score) [39]: 0.37
